Assay results taken from PMC9942304, “Identification of RimR2 as a positive pathway-specific regulator of rimocidin biosynthesis in Streptomyces rimosus M527”.
Construct, isoform or probe ends are uncertain for at least one entry. No signal at the amounts used counts as a negative. At least one verdict rests on a figure or table, not on a statement of the authors. Tags and fusion partners may be left off the protein sequences shown.

What follows are sequences tested against T1, RimR2 (Streptomyces rimosus M527) (UniProt A0ABY3YSD1) (assay: EMSA). Settings: LightShift Chemiluminescent EMSA Kit (Thermo); 0.04 pmol/ul biotin probe, 10 ug RimR2; pH and temperature not stated; recombinant protein; label: biotin (5' in Fig. 5 legend, 3' in Methods).
T1 sequence (looked up, limits assumed): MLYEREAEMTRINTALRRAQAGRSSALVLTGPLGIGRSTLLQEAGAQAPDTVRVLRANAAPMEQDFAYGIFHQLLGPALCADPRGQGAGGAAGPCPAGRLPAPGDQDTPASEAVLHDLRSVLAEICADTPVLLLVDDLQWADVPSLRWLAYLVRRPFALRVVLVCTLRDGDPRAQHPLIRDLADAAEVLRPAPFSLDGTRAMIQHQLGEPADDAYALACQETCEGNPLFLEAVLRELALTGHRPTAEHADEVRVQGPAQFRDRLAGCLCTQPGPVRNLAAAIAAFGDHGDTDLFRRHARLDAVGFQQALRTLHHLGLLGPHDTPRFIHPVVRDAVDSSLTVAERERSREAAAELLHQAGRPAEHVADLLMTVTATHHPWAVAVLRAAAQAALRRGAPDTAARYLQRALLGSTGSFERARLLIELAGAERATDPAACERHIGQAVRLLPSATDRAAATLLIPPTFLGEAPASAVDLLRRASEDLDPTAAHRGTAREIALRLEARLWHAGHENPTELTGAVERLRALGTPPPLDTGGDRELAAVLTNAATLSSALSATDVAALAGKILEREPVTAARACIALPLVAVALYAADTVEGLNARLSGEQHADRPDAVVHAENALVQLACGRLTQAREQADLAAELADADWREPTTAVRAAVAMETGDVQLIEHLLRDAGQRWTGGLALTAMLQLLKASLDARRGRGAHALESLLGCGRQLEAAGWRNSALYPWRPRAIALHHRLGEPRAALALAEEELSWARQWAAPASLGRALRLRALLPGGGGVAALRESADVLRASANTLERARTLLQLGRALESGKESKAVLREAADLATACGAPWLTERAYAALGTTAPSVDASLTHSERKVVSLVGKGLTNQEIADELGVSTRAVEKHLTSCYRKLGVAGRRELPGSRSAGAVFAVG

Binding result, no binding:
GATCCTCGGACACCCGGCCCTGGCCCGGGCGTAACACCGCACGCACATCT (double strand) [rimF promoter probe]
CGCCGCGAGGAACTGCGGGAATTCCTGGCCGGGGAGTCCATCGAGACCCG (double strand) [rimG promoter probe]
TCTTTTGTGATCAGGATGGGGGCGCGCGGCGGCCCGGGGCCGGTGGACCA (double strand) [rimD promoter probe]
CCTCCCGCTCCGCCCGCGGCCATGTGGCCTTCGGCTACGGCGTACACCAG (double strand) [rimH promoter probe]
GTCGGCCCGGGGCGTTTCATTCTCCGGATTTTCGCCACCTCGCTCGATTG (double strand) [rimR1 promoter probe]
